# Shown are results outside the selection of hits, which stands elsewhere. Inconclusive results are not listed. Activity calls are given as the source filed them. Calls follow the shape of the dose curve; as a rule, active = well fitted inhibition curve with a large enough effect; inconclusive = small, poorly fitted or top-dose-only effect, or another doubt; inactive = no such curve, though single readings can be large or run the other way.
# Assay: Primary qHTS for delayed death inhibitors of the malarial parasite plastid, 96 hour incubation
# Settings: P. falciparum luciferase reporter growth; at 28.7 µM (top of the series)
# Excerpt: The goal of this screen is to discover new antimalarial compounds that act by inhibiting the development of the apicoplast in the malarial parasite Plasmodium falciparum. The biochemical processes that make this organelle essential for erythrocytic stage parasites are not well understood. However, antibiotics such as azithromycin and tetracycline, which target the apicoplast translational machinery, have a potent antimalarial effect.
# We have developed a cell-based assay that measures parasite growth based on the expression of an integrated copy of a firefly luciferase reporter. To detect small molecules that cause this "delayed death" phenotype, erythrocytes infected with the luciferase-expressing parasites were incubated with compounds for either one or two generations, corresponding to 48 and 96 hours, respectively. Compounds that inhibit parasite growth in the second generation, but not the first, should be enriched in antimalarials that target the apicoplast. Growth inhibition is detected by a decrease in luciferase activity. […]
# Four microliters of infected erythrocytes (2% hematocrit, 0.05% parasitemia final concentration) in culture medium were dispensed and the plates incubated for 96 hours at 37 C in 5% CO2. Two microliters of luciferase detection reagent was added and luminescence was detected by a ViewLux (PerkinElmer) reader.
# % is scaled to controls: 0 for no effect and ±100 for the full control effect.
row,Compound,"activity change, negative = inhibition"
1,Cc1cc(=O)oc2cc(OCc3ccccc3)ccc12,inactive: 0%
